# No constants are given. Whether binding was seen depends on the method and setting. Binding seen in cells or lysates may run through a third protein. These calls come from enrichment with a bait or labelling near it, and not all partners need be listed.
# By UniProt entry, the sequences of proteins in these tests, tags left out.
# UniProt P05412: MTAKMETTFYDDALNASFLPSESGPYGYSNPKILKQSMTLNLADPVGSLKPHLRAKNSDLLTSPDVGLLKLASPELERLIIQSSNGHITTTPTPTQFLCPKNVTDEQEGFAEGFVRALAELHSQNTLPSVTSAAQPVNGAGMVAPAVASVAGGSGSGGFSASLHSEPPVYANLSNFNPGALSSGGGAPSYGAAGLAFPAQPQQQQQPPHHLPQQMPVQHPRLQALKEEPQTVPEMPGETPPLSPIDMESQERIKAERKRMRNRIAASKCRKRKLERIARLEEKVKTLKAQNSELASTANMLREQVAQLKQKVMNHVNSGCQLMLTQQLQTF
# UniProt P49715: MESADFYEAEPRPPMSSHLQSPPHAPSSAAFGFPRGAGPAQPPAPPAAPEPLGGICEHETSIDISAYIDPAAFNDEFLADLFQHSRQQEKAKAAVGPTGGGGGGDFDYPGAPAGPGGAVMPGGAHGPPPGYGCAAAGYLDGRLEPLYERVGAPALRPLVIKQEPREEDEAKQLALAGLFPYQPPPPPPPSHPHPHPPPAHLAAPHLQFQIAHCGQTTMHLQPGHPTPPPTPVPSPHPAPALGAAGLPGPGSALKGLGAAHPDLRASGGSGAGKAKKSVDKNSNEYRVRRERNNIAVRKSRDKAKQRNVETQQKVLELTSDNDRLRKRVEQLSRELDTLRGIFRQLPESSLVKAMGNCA
# UniProt Q92785: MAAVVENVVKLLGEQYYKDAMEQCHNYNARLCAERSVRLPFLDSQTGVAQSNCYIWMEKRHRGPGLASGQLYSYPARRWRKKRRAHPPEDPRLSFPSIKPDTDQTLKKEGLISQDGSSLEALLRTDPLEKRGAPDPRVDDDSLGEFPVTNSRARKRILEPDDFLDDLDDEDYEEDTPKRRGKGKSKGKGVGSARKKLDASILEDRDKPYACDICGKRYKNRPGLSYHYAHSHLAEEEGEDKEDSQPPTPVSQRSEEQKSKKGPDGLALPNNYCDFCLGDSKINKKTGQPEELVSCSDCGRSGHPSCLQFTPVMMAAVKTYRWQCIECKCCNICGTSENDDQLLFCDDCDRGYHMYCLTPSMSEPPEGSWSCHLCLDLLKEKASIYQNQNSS
# UniProt P51617: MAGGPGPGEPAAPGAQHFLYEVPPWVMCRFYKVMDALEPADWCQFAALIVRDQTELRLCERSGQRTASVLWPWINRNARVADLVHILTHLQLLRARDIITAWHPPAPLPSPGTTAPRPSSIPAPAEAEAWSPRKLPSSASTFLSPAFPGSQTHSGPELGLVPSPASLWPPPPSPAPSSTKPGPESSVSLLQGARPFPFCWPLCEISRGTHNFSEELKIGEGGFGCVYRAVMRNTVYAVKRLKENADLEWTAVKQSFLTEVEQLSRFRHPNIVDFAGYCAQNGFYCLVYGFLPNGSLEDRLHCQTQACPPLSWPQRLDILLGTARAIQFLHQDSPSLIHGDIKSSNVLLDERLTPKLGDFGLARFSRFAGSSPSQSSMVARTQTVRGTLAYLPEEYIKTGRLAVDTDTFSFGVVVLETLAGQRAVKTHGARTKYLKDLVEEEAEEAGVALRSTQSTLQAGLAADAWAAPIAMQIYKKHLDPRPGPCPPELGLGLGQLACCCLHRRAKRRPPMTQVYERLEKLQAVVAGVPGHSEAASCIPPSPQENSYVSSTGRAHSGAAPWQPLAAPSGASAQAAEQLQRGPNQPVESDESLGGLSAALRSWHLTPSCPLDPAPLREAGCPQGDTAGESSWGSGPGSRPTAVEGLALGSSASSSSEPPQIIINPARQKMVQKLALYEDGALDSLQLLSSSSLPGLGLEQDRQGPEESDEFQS
# UniProt Q96RN5: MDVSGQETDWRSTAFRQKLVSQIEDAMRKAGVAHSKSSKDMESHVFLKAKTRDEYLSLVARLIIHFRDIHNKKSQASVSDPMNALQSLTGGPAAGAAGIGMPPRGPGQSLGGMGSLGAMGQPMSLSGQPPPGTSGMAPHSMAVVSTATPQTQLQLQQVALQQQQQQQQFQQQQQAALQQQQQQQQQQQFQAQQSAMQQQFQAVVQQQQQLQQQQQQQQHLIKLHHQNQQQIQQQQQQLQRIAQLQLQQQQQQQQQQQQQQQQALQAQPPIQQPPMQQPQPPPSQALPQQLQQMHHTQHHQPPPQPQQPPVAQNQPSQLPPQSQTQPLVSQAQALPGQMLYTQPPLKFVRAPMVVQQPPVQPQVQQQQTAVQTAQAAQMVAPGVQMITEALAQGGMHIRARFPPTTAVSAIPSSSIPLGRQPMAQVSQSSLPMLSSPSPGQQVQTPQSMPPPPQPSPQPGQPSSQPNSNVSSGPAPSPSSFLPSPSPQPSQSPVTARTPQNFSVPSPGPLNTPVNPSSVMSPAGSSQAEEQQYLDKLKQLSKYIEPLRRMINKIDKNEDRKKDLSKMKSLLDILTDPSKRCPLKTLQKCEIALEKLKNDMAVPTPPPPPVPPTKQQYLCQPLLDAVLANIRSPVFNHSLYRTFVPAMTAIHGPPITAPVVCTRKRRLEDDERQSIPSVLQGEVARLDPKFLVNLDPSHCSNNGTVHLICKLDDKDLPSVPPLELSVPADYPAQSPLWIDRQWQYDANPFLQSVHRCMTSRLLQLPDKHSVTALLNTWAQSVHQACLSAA
# UniProt Q92830: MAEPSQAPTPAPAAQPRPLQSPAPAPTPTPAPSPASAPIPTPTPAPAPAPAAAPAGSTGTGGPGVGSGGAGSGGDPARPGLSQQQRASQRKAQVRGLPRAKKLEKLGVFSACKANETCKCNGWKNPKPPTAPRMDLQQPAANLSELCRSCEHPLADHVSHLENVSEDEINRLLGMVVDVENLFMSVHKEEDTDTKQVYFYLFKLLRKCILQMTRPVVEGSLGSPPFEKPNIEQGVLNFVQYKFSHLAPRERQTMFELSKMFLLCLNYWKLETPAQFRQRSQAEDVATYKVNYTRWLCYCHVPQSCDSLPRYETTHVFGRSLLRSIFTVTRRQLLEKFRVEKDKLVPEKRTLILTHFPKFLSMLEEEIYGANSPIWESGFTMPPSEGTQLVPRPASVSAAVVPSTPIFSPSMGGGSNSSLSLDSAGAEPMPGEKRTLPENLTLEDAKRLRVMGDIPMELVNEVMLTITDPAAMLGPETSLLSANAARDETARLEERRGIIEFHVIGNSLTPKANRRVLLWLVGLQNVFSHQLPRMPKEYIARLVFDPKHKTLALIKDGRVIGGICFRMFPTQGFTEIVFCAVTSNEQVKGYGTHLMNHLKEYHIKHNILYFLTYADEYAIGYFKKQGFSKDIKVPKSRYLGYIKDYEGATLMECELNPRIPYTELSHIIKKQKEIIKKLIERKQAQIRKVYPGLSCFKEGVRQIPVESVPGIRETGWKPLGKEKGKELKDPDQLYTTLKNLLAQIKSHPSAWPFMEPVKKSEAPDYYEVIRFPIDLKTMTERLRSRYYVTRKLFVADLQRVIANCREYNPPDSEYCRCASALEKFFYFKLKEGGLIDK
# UniProt Q92782: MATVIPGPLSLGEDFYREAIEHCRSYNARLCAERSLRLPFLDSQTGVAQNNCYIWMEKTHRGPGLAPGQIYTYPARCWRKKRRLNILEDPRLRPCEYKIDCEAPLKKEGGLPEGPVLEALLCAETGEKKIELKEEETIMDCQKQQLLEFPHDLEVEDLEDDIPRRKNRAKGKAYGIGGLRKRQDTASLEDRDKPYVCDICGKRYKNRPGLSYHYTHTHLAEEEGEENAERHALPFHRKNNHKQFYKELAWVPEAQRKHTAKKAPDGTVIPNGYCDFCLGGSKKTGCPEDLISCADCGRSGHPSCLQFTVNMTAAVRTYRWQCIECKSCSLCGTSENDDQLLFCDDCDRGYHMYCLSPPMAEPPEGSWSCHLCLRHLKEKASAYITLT
# UniProt P19532: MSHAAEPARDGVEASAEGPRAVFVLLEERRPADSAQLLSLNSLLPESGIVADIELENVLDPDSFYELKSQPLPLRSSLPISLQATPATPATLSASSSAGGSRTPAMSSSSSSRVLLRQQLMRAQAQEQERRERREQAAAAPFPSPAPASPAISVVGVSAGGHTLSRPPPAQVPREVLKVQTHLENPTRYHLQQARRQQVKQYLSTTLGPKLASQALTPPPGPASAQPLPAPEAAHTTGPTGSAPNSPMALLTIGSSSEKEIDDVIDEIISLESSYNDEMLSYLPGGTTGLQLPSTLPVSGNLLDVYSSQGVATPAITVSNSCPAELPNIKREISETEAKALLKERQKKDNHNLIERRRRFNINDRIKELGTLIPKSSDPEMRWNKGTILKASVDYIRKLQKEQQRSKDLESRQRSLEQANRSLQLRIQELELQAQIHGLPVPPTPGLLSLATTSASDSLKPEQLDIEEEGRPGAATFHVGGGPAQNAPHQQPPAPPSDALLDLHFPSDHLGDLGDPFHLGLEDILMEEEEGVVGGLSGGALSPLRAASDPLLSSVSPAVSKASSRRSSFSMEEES
# Molecular target: p65(wt)-HA-miniTurbo (human) (UniProt Q04206)
row,Molecule,binding
1,c-JUN (from UniProt P05412 1-331),binds
2,c-JUN phosphorylated at S63 (from UniProt P05412 1-331),binds

# The next lines start with the values.
row,binding,Molecule
1,binds,"FOSL2 (protein, UniProt P15408 1-326) MYQDYPGNFDTSSRGSSGSPAHAESYSSGGGGQQKFRVDMPGSGSAFIPTINAITTSQDLQWMVQPTVITSMSNPYPRSHPYSPLPGLASVPGHMALPRPGVIKTIGTTVGRRRRDEQLSPEEEEKRRIRRERNKLAAAKCRNRRRELTEKLQAETEELEEEKSGLQKEIAELQKEKEKLEFMLVAHGPVCKISPEERRSPPAPGLQPMRSGGGSVGAVVVKQEPLEEDSPSSSSAGLDKAQRSVIKPISIAGGFYGEEPLHTPIVVTSTPAVTPGTSNLVFTYPSVLEQESPASPSESCSKAHRRSSSSGDQSSDSLNSPTLLAL"
2,binds,"FOSL1 (protein, UniProt P15407 1-271) MFRDFGEPGPSSGNGGGYGGPAQPPAAAQAAQQKFHLVPSINTMSGSQELQWMVQPHFLGPSSYPRPLTYPQYSPPQPRPGVIRALGPPPGVRRRPCEQISPEEEERRRVRRERNKLAAAKCRNRRKELTDFLQAETDKLEDEKSGLQREIEELQKQKERLELVLEAHRPICKIPEGAKEGDTGSTSGTSSPPAPCRPVPCISLSPGPVLEPEALHTPTLMTTPSLTPFTPSLVFTYPSTPEPCASAHRKSSSSSGDPSSDPLGSPTLLAL"

# Molecular target: p65(wt)-HA-miniTurbo (human) (UniProt Q04206)
# Remark: another data set of the same source
row,Molecule,binding
1,CEBPA (from UniProt P49715 1-358),binds
2,DPF2 (from UniProt Q92785 1-391),binds
3,IRAK1 (from UniProt P51617 1-712),binds
4,MED15 (from UniProt Q96RN5 1-788),binds
5,KAT2A (from UniProt Q92830 1-837),binds
6,"IRF1 (protein, UniProt P10914 1-325) MPITRMRMRPWLEMQINSNQIPGLIWINKEEMIFQIPWKHAAKHGWDINKDACLFRSWAIHTGRYKAGEKEPDPKTWKANFRCAMNSLPDIEEVKDQSRNKGSSAVRVYRMLPPLTKNQRKERKSKSSRDAKSKAKRKSCGDSSPDTFSDGLSSSTLPDDHSSYTVPGYMQDLEVEQALTPALSPCAVSSTLPDWHIPVEVVPDSTSDLYNFQVSPMPSTSEATTDEDEEGKLPEDIMKLLEQSEWQPTNVDGKGYLLNEPGVQPTSVYGDFSCKEEPEIDSPGGDIGLSLQRVFTDLKNMDATWLDSLLTPVRLPSIQAIPCAP",binds

# The next lines start with the values.
row,binding,Molecule
1,binds,DPF1 (from UniProt Q92782 1-387)
2,binds,"CEBPD (protein, UniProt P49716 1-269) MSAALFSLDGPARGAPWPAEPAPFYEPGRAGKPGRGAEPGALGEPGAAAPAMYDDESAIDFSAYIDSMAAVPTLELCHDELFADLFNSNHKAGGAGPLELLPGGPARPLGPGPAAPRLLKREPDWGDGDAPGSLLPAQVAACAQTVVSLAAAGQPTPPTSPEPPRSSPRQTPAPGPAREKSAGKRGPDRGSPEYRQRRERNNIAVRKSRDKAKRRNQEMQQKLVELSAENEKLHQRVEQLTRDLAGLRQFFKQLPSPPFLPAAGTADCR"

# Molecular target: p65(wt)-HA-miniTurbo (human) (UniProt Q04206)
# Remark: another data set of the same source
row,binding,Molecule
1,binds,"ZMIZ1 (protein, UniProt Q9ULJ6 1-1067) MNSMDRHIQQTNDRLQCIKQHLQNPANFHNAATELLDWCGDPRAFQRPFEQSLMGCLTVVSRVAAQQGFDLDLGYRLLAVCAANRDKFTPKSAALLSSWCEELGRLLLLRHQKSRQSDPPGKLPMQPPLSSMSSMKPTLSHSDGSFPYDSVPWQQNTNQPPGSLSVVTTVWGVTNTSQSQVLGNPMANANNPMNPGGNPMASGMTTSNPGLNSPQFAGQQQQFSAKAGPAQPYIQQSMYGRPNYPGSGGFGASYPGGPNAPAGMGIPPHTRPPADFTQPAAAAAAAAVAAAAATATATATATVAALQETQNKDINQYGPMGPTQAYNSQFMNQPGPRGPASMGGSMNPASMAAGMTPSGMSGPPMGMNQPRPPGISPFGTHGQRMPQQTYPGPRPQSLPIQNIKRPYPGEPNYGNQQYGPNSQFPTQPGQYPAPNPPRPLTSPNYPGQRMPSQPSSGQYPPPTVNMGQYYKPEQFNGQNNTFSGSSYSNYSQGNVNRPPRPVPVANYPHSPVPGNPTPPMTPGSSIPPYLSPSQDVKPPFPPDIKPNMSALPPPPANHNDELRLTFPVRDGVVLEPFRLEHNLAVSNHVFHLRPTVHQTLMWRSDLELQFKCYHHEDRQMNTNWPASVQVSVNATPLTIERGDNKTSHKPLHLKHVCQPGRNTIQITVTACCCSHLFVLQLVHRPSVRSVLQGLLKKRLLPAEHCITKIKRNFSSVAASSGNTTLNGEDGVEQTAIKVSLKCPITFRRIQLPARGHDCKHVQCFDLESYLQLNCERGTWRCPVCNKTALLEGLEVDQYMWGILNAIQHSEFEEVTIDPTCSWRPVPIKSDLHIKDDPDGIPSKRFKTMSPSQMIMPNVMEMIAALGPGPSPYPLPPPPGGTNSNDYSSQGNNYQGHGNFDFPHGNPGGTSMNDFMHGPPQLSHPPDMPNNMAALEKPLSHPMQETMPHAGSSDQPHPSIQQGLHVPHPSSQSGPPLHHSGAPPPPPSQPPRQPPQAAPSSHPHSDLTFNPSSALEGQAGAQGASDMPEPSLDLLPELTNPDELLSYLDPPDLPSNSNDDLLSLFENN"
2,binds,"ZMIZ2 (protein, UniProt Q8NF64 1-920) MNSMNPMKPALPPAPHGDGSFAYESVPWQQSATQPAGSLSVVTTVWGVGNATQSQVLGNPMGPAGSPSGSSMMPGVAGGSSALTSPQCLGQQAFAEGGANKGYVQQGVYSRGGYPGAPGFTTGYAGGPGGLGLPSHAARPSTDFTQAAAAAAVAAAAATATATATATVAALQEKQSQELSQYGAMGAGQSFNSQFLQHGGPRGPSVPAGMNPTGIGGVMGPSGLSPLAMNPTRAAGMTPLYAGQRLPQHGYPGPPQAQPLPRQGVKRTYSEVYPGQQYLQGGQYAPSTAQFAPSPGQPPAPSPSYPGHRLPLQQGMTQSLSVPGPTGLHYKPTEQFNGQGASFNGGSVSYSQPGLSGPTRSIPGYPSSPLPGNPTPPMTPSSSVPYMSPNQEVKSPFLPDLKPNLNSLHSSPSGSGPCDELRLTFPVRDGVVLEPFRLQHNLAVSNHVFQLRDSVYKTLIMRPDLELQFKCYHHEDRQMNTNWPASVQVSVNATPLTIERGDNKTSHKPLYLKHVCQPGRNTIQITVTACCCSHLFVLQLVHRPSVRSVLQGLLKKRLLPAEHCITKIKRNFSSGTIPGTPGPNGEDGVEQTAIKVSLKCPITFRRIQLPARGHDCRHIQCFDLESYLQLNCERGTWRCPVCNKTALLEGLEVDQYMLGILIYIQNSDYEEITIDPTCSWKPVPVKPDMHIKEEPDGPALKRCRTVSPAHVLMPSVMEMIAALGPGAAPFAPLQPPSVPAPSDYPGQGSSFLGPGTFPESFPPTTPSTPTLAEFTPGPPPISYQSDIPSSLLTSEKSTACLPSQMAPAGHLDPTHNPGTPGLHTSNLGAPPGPQLHHSNPPPASRQSLGQASLGPTGELAFSPATGVMGPPSMSGAGEAPEPALDLLPELTNPDELLSYLGPPDLPTNNNDDLLSLFENN"

# Molecular target: p65(wt)-HA-miniTurbo (human) (UniProt Q04206)
# Remark: another data set of the same source
row,binding,Molecule
1,binds,transcription factor E3 (TFE3) (from UniProt P19532 1-575)
2,binds,"S100A9 (protein, UniProt P06702 1-114) MTCKMSQLERNIETIINTFHQYSVKLGHPDTLNQGEFKELVRKDLQNFLKKENKNEKVIEHIMEDLDTNADKQLSFEEFIMLMARLTWASHEKMHEGDEGPGHHHKPGLGEGTP"
3,binds,"Zinc finger protein GLI-similar 2 (GLIS2) (protein, UniProt Q9BZE0 1-524) MHSLDEPLDLKLSITKLRAAREKRERTLGVVRPRALHRELGLVDDSPTPGSPGSPPSGFLLNSKFPEKVEGRFSAAPLVDLSLSPPSGLDSPNGSSSLSPERQGNGDLPPVPSASDFQPLRYLDGVPSSFQFFLPLGSGGALHLPASSFLTPPKDKCLSPDLPLPKQLVCRWAKCNQLFELLQDLVDHVNDYHVKPEKDAGYCCHWEGCARHGRGFNARYKMLIHIRTHTNEKPHRCPTCSKSFSRLENLKIHNRSHTGEKPYVCPYEGCNKRYSNSSDRFKHTRTHYVDKPYYCKMPGCHKRYTDPSSLRKHIKAHGHFVSHEQQELLQLRPPPKPPLPAPDGGPYVSGAQIIIPNPAALFGGPGLPGLPLPLAPGPLDLSALACGNGGGSGGGGGMGPGLPGPVLPLNLAKNPLLPSPFGAGGLGLPVVSLLAGAAGGKAEGEKGRGSVPTRALGMEGHKTPLERTESSCSRPSPDGLPLLPGTVLDLSTGVNSAASSPEALAPGWVVIPPGSVLLKPAVVN"
4,binds,"S100A8 (protein, UniProt P05109 1-93) MLTELEKALNSIIDVYHKYSLIKGNFHAVYRDDLKKLLETECPQYIRKKGADVWFKELDINTDGAVNFQEFLILVIKMGVAAHKKSHEESHKE"
5,binds,"zinc finger and BTB domain containing 5 (ZBTB5) (protein, UniProt O15062 1-677) MDFPGHFEQIFQQLNYQRLHGQLCDCVIVVGNRHFKAHRSVLAACSTHFRALFSVAEGDQTMNMIQLDSEVVTAEAFAALIDMMYTSTLMLGESNVMDVLLAASHLHLNSVVKACKHYLTTRTLPMSPPSERVQEQSARMQRSFMLQQLGLSIVSSALNSSQNGEEQPAPMSSSMRSNLDQRTPFPMRRLHKRKQSAEERARQRLRPSIDESAISDVTPENGPSGVHSREEFFSPDSLKIVDNPKADGMTDNQEDSAIMFDQSFGTQEDAQVPSQSDNSAGNMAQLSMASRATQVETSFDQEAAPEKSSFQCENPEVGLGEKEHMRVVVKSEPLSSPEPQDEVSDVTSQAEGSESVEVEGVVVSAEKIDLSPESSDRSFSDPQSSTDRVGDIHILEVTNNLEHKSTFSISNFLNKSRGNNFTANQNNDDNIPNTTSDCRLESEAPYLLSPEAGPAGGPSSAPGSHVENPFSEPADSHFVRPMQEVMGLPCVQTSGYQGGEQFGMDFSRSGLGLHSSFSRVMIGSPRGGASNFPYYRRIAPKMPVVTSVRSSQIPENSTSSQLMMNGATSSFENGHPSQPGPPQLTRASADVLSKCKKALSEHNVLVVEGARKYACKICCKTFLTLTDCKKHIRVHTGEKPYACLKCGKRFSQSSHLYKHSKTTCLRWQSSNLPSTLL"
